These results are taken from paper PMC10565642.

These are yes or no findings as the source states them, for the method shown. Binding seen in cells or lysates may run through a third protein. Binding can be weak; no strength is given.

The test has as its target FLAG-tagged NLRP1ΔPYDΔCARD (human). The experiment in a line: co-IP; HEK293T cells transfected with FLAG-tagged NLRP1 constructs; lysis in 50 mM Tris-HCl, 150 mM NaCl, 1% NP40; 1 mg lysate with ANTI-FLAG M2 resin, 2 h at 4°C.

B1: LRRFIP1 in HEK293 cells (protein, UniProt Q32MZ4 1-808)
chain: MTSPAAAQSREIDCLSPEAQKLAEARLAAKRAARAEAREIRMKELERQQKEEDSERYSRRSRRNTSASDEDERMSVGSRGSLRVEERPEKDFTEKGSRNMPGLSAATLASLGGTSSRRGSGDTSISIDTEASIREIKELNELKDQIQDVEGKYMQGLKEMKDSLAEVEEKYKKAMVSNAQLDNEKTNFMYQVDTLKDMLLELEEQLAESRRQYEEKNKEFEREKHAHSILQFQFAEVKEALKQREEMLEKHGIILNSEIATNGETSDTLNNVGYQGPTKMTKEELNALKSTGDGTLGRASEVEVKNEIVANVGKREILHNTEKEQHTEDTVKDCVDIEVFPAGENTEDQKSSEDTAPFLGTLAGATYEEQVQSQILESSSLPENTVQVESNEVMGAPDDRTRTPLEPSNCWSDLDGGNHTENVGEAAVTQVEEQAGTVASCPLGHSDDTVYHDDKCMVEVPQELETSTGHSLEKEFTNQEAAEPKEVPAHSTEVGRDHNEEEGEETGLRDEKPIKTEVPGSPAGTEGNCQEATGPSTVDTQNEPLDMKEPDEEKSDQQGEALDSSQKKTKNKKKKNKKKKSPVPVETLKDVKKELTYQNTDLSEIKEEEQVKSTDRKSAVEAQNEVTENPKQKIAAESSENVDCPENPKIKLDGKLDQEGDDVQTAAEEVLADGDTLDFEDDTVQSSGPRAGGEELDEGVAKDNAKIDGATQSSPAEPKSEDADRCTLPEHESPSQDISDACEAESTERCEMSEHPSQTVRKALDSNSLENDDLSAPGREPGHFNPESREDTRGGNEKGKSKEDCTMS
As to B1, the binding entry is on record as “binds”.
